Laboratory results: the supplement of paper PMC10470496
Counter-ions that a name gives are not always drawn. This is one part of the list. Repeats are few or missing, and single values can be far off.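 The strains were three CDC resistance-bank clinical C. auris isolates from clades III, IV and I, cultured in RPMI-1640 at 35°C. Growth was background-corrected OD600 versus vehicle-only wells on the same plate. A hit needed >50% inhibition in two or more strains plus a plate-corrected B-score exceeding 0.1.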

The compounds below were run on C. auris AR-386 (assay: growth relative to vehicle control (OD600 ratio) (fraction); higher = less inhibition). Conditions: 1 µM; 24 h.

| Structure (SMILES) | growth |
| --- | --- |
| Cc1nc(Nc2ncc(C(=O)Nc3c(C)cccc3Cl)s2)cc(N2CCN(CCO)CC2)n1 [Dasatinib Monohydrate] | 1.03 |
| CCN1CCN(Cc2ccc(Nc3ncc(F)c(-c4cc(F)c5nc(C)n(C(C)C)c5c4)n3)nc2)CC1 | 1.03 |
| Cc1c(Cl)cccc1Nc1ccccc1C(=O)O [Tolfenamic Acid] | 0.92 |
| C[N+]1(C)CCC(OC(=O)C(O)(c2ccccc2)C2CCCC2)C1 (stereo not given) [Glycopyrrolate] | 0.69 |
| Cc1cc2c(s1)Nc1ccccc1N=C2N1CCN(C)CC1 [Olanzapine] | 0.79 |
| CCC(=O)O[C@]1(C(=O)CCl)[C@@H](C)C[C@H]2[C@@H]3C[C@H](F)C4=CC(=O)C=C[C@]4(C)[C@@]3(F)[C@@H](O)C[C@@]21C [Halobetasol Propionate] | 1.23 |
| CN(C)c1nc(N(C)C)nc(N(C)C)n1 [Altretamine] | 1.01 |
| Cc1cn([C@@H]2C[C@@H](O)[C@H](CO)O2)c(=O)[nH]c1=O [Telbivudine] | 0.51 |
| O=C(CCNNC(=O)c1ccncc1)NCc1ccccc1 [Nialamide] | 0.95 |
| CCCN[C@H]1CCc2nc(N)sc2C1 [Pramipexole] | 1.02 |
| C[N+]1(C)[C@@H]2C[C@@H](OC(=O)C(O)(c3cccs3)c3cccs3)C[C@H]1[C@@H]1O[C@@H]12 [Tiotropium Bromide hydrate] | 0.87 |
| Cc1cccc(C)c1OCC(=O)N[C@@H](Cc1ccccc1)[C@@H](O)C[C@H](Cc1ccccc1)NC(=O)[C@H](C(C)C)N1CCCNC1=O [Lopinavir] | 1.42 |
| CC(CCc1ccccc1)NCC(O)c1ccc(O)c(C(N)=O)c1 (stereo not given) [Labetalol HCl] | 0.98 |
| Cc1cccc(Nc2ccccc2C(=O)O)c1C [Mefenamic Acid] | 0.85 |
| COc1cc(C(=O)NC2CCCNC2)cc(OC)c1OC (stereo not given) [Troxipide] | 0.83 |
| CCCCc1nc(Cl)c(CO)n1Cc1ccc(-c2ccccc2-c2nnn[nH]2)cc1 [Losartan Potassium (DuP 753)] | 1.13 |
| CC[C@]1(O)C[C@H]2CN(CCc3c([nH]c4ccccc34)[C@@](C(=O)OC)(c3cc4c(cc3OC)N(C=O)[C@H]3[C@@](O)(C(=O)OC)[C@H](OC(C)=O)[C@]5(CC)C=CCN6CC[C@]43[C@@H]65)C2)C1 [Vincristine sulfate] | 0.4 |
| CC#C[C@]1(O)CC[C@H]2[C@@H]3CCC4=CC(=O)CCC4=C3[C@@H](c3ccc(N(C)C)cc3)C[C@@]21C [Mifepristone] | 1.13 |
| Cc1nc(C)c(Cl)c(O)c1Cl [Clopidol] | 0.57 |
| O=C1OCCN1/N=C/c1ccc([N+](=O)[O-])o1 [Furazolidone] | 0.94 |

| Structure (SMILES) | growth |
| --- | --- |
| CN(C)[C@@H]1C(O)=C(C(N)=O)C(=O)[C@@]2(O)C(O)=C3C(=O)c4c(O)cccc4[C@@](C)(O)[C@H]3[C@H](O)[C@@H]12 [Oxytetracycline (Terramycin)] | 0.65 |
| C#C[C@]1(OC(C)=O)CC[C@H]2[C@@H]3CCC4=C[C@@H](OC(C)=O)CC[C@@H]4[C@H]3CC[C@@]21C [Ethynodiol diacetate] | 0.85 |
| OCc1cc(C(O)CNCCCCCCOCCCCc2ccccc2)ccc1O (stereo not given) [Salmeterol Xinafoate] | 0.77 |
| C[C@@H](O)[C@H]1C(=O)N2C(C(=O)O)=C(S[C@@H]3CN[C@H](C(=O)N(C)C)C3)[C@H](C)[C@H]12 [Meropenem] | 1.12 |
| CC(O)(P(=O)(O)O)P(=O)(O)O [Etidronate] | 0.72 |
| Cn1c([N+](=O)[O-])cnc1COC(N)=O [Ronidazole] | 1.15 |
| Brc1c(NC2=NCCN2)ccc2nccnc12 [Brimonidine Tartrate] | 0.67 |
| COC(c1ccccc1)(c1ccccc1)[C@H](Oc1nc(C)cc(C)n1)C(=O)O [Ambrisentan] | 1.04 |
| CC(=O)N[C@@H](CCC(N)=O)C(=O)O [Aceglutamide] | 0.75 |
| CC[C@@H]([C@H](C)O)n1ncn(-c2ccc(N3CCN(c4ccc(OC[C@@H]5CO[C@@](Cn6cncn6)(c6ccc(F)cc6F)C5)cc4)CC3)cc2)c1=O [Posaconazole] | 0.08 |
| Cc1nc(=O)c2cc(CN(C)c3ccc(C(=O)N[C@@H](CCC(=O)O)C(=O)O)s3)ccc2[nH]1 [Raltitrexed] | 1.23 |
| Cc1cn[nH]c1 [Fomepizole] | 1.09 |
| COc1ccc2c(c1)c(CC(=O)OCC(=O)O)c(C)n2C(=O)c1ccc(Cl)cc1 [Acemetacin] | 0.9 |
| O=C(O)c1cc(=O)c2c(OCC(O)COc3cccc4oc(C(=O)O)cc(=O)c34)cccc2o1 [Disodium Cromoglycate] | 0.82 |
| CC1CCC(C(C)C)C(O)C1 (single isomer, unassigned; (-)) [(-)-Menthol] | 0.98 |
| C[C@H](Cc1cc2c(c(C(N)=O)c1)N(CCCO)CC2)NCCOc1ccccc1OCC(F)(F)F [Silodosin] | 1.01 |
| CC(C(=O)O)c1ccc(-c2ccccc2)c(F)c1 (stereo not given) [Flurbiprofen] | 0.99 |
| CCOC(=O)C1=C(C)NC(C)=C(C(=O)OC)C1c1cccc(Cl)c1Cl (stereo not given) [Felodipine] | 1.31 |
| CCC(NC(C)C)C(O)c1ccc(O)c(O)c1 (stereo not given) [Isoetharine Mesylate] | 0.86 |
| CCOC(=O)C1=C(C)NC(C)=C(C(=O)OCC)C1c1ccccc1/C=C/C(=O)OC(C)(C)C [Lacidipine] | 1.05 |
